At least one compound was matched to its structure with a doubt left.
Tests used:
Format in all cases: cell-based, Toxoplasma gondii
T. gondii [1] = assay: Parasite replication rate under bradyzoite differentiation conditions (parasites per PV-cyst, IFA); settings: GA in the culture media
Method: FIG. 5 is a graph showing that geldanamycin A (GA) affects bradyzoite replication rate. PK strain (an avirulent derivative of the Me49 strain) and ΔUPRT strain (a strain with a stage-specific selectable marker) parasites were grown under bradyzoite differentiation conditions for 4 days in the presence of 100 nM of GA or DMSO. IFAs were carried out with rabbit anti-T. gondii Hsp90 serum. Fluorescent parasites were counted and the number of parasites per parasitophorous vacuole (PV)-cysts was graphed. One hundred PV-cysts were counted. Student t test was performed by Prism3™ program (Graphpad). *p 0.05, **p 0.01. The y-axis represents the number of parasites/PV-cysts.
(§1) RH UPRT knock-out parasites can be induced to differentiate into bradyzoites in low CO2, resulting in pyrimidine starvation. […] Bradyzoite induction under this method was assessed and followed by cyst wall detection using the Dolichos biflorus lectin (Boothroyd et al., (1997) Philos Trans R Soc Lond B Biol Sci 352, 1347-1354). […]
GA (InvivoGen, San Diego, Calif.) was dissolved in dimethyl sulfoxide (DMSO) at […]. […] For replication rate studies, the number of parasites per parasitophorous vacuole or cysts (PV-Cyst) was determined for at least 100 PV-Cyst per treatment (GA or DMSO) in replicate experiments. […] Analysis of intracellular localization of Hsp90 was assessed in the same way but using rabbit anti-TgHsp90 serum. […]

T. gondii [2] = assay: Tachyzoite to bradyzoite conversion (P34 marker and Hsp90 subcellular localization by IFA); settings: RH ΔUPRT strain, bradyzoite conditions 4 days, 100 nM GA
Method: FIG. 6 is two graphs showing that GA blocks tachyzoite to bradyzoite conversion. Parasites were grown under bradyzoite differentiation conditions for 4 days in the presence of 100 nM of GA or DMSO. FIG. 6A is RH UPRT knock-out parasites, and FIG. 6B is PK parasites. The y-axes depict the number of parasites/PV cysts. Cytoplasmic (c) and nuclear (n) Hsp90 localization was determined by IFA with rabbit anti-T. gondii Hsp90 serum. Parasites were also stained with the bradyzoite-specific marker p34 and scored as P34 positive (p34+) or negative (p34−). The number of P34−/Hsp90c; P34−/Hsp90c,n; P34+/Hsp90c; and P34+/Hsp90c,n per 100 PV-Cysts was counted at random, in three independent experiments.
as §1, with “starvation. (Bohne et al., (eds) (1997) Stage-specific expression of a selectable marker in T. gondii permits selective inhibition of either tachyzoites or bradyzoites Vol. 88. Mol Biochem Parasitol; Bohne et al., (1997) Mol Biochem Parasitol 88, 115-126).” for “starvation.”

T. gondii bradyzoites = assay: In vitro transformation of encysted bradyzoites into tachyzoites (P21/SAG1 markers and Hsp90 localization by IFA); settings: 72 hours, longer time course
Method: Released PK bradyzoites from brain cysts of infected mice were incubated with 100 nM GA or DMSO for 2 hours, washed, inoculated onto a confluent HFF monolayers, and grown under tachyzoite conditions. IFAs were performed at 4 and 24 hours post-inoculation. To identify mature bradyzoites, parasites were stained using a monoclonal anti-p21 antibody, and tachyzoites were stained using rabbit anti-SAG1. […] The y-axis depicts the number of parasites per/PV-cysts, and the x-axis depicts time in hours. […] The y-axis depicts the number of parasites per/PV-cysts, and the x-axis depicts time in hours. […] 100 PV-Cysts were counted at random in three independent experiments. […]
GA (InvivoGen, San Diego, Calif.) was dissolved in dimethyl sulfoxide (DMSO) at […]. […] For replication rate studies, the number of parasites per parasitophorous vacuole or cysts (PV-Cyst) was determined for at least 100 PV-Cyst per treatment (GA or DMSO) in replicate experiments. To measure the effect of GA on stage conversion, GA was added in bradyzoite induction experiments (as described above), slides were analyzed by IFA, and the number of P34 positive vacuoles was determined in both GA and DMSO treated cultures. Analysis of intracellular localization of Hsp90 was assessed in the same way but using rabbit anti-TgHsp90 serum. […]

SMILES: COC1=C2C[C@@H](C)C[C@H](OC)[C@H](O)[C@@H](C)/C=C(\C)[C@H](OC(N)=O)[C@@H](OC)/C=C\C=C(/C)C(=O)NC(=CC1=O)C2=O [GA, geldanamycin A]
- number of infected cells (T. gondii [1]): lower number of infected cells
- bradyzoite formation (T. gondii [2]): drastically reduced bradyzoite formation
- conversion to tachyzoites and re-invasion of a new cell monolayer (T. gondii bradyzoites): converted to tachyzoites

From patent publication US7968096B2, “Methods and compositions for treating toxoplasma” (priority 2005, dated 2011)
